Assay results taken from article PMC1950744, “Transcription Termination Defective Mutants of Rho: Role of Different Functions of Rho in Releasing RNA from the Elongation Complex” (Journal of Molecular Biology, 2007).
For at least one entry, the source does not settle the construct or the ends of the probe. For part of these data: At least one verdict was read from the data and is not stated in words by the source.

Columns and labels:
[1] = target: Rho N340S (Escherichia coli) (UniProt P0AG30); assay: ATPase activation (secondary site); settings: 1 uM (dC)34, 1 mM ATP, binding defect or slow hydrolysis; 25 mM Tris-HCl pH 8.0, 5 mM MgCl2, 50 mM KCl, 1 mM DTT, 0.1 mg/ml BSA, 37 C, 5 min; 10 nM labeled oligo; Rho as hexamer; recombinant protein; protein details: C-terminal His
[2] = target: Rho P279S (Escherichia coli) (UniProt P0AG30); assay: ATPase activation (secondary site); settings: 1 uM (dC)34, 1 mM ATP, binding defect or slow hydrolysis; 25 mM Tris-HCl pH 8.0, 5 mM MgCl2, 50 mM KCl, 1 mM DTT, 0.1 mg/ml BSA, 37 C, 5 min; 10 nM labeled oligo; Rho as hexamer; recombinant protein; protein details: C-terminal His
[3] = target: Rho Y274D (Escherichia coli) (UniProt P0AG30); assay: ATPase activation (secondary site); settings: 1 uM (dC)34, 1 mM ATP, binding defect or slow hydrolysis; 25 mM Tris-HCl pH 8.0, 5 mM MgCl2, 50 mM KCl, 1 mM DTT, 0.1 mg/ml BSA, 37 C, 5 min; 10 nM labeled oligo; Rho as hexamer; recombinant protein; protein details: C-terminal His
[4] = target: Rho G51V (Escherichia coli) (UniProt P0AG30); assay: ATPase activation (secondary site); settings: 1 uM (dC)34, 1 mM ATP, binding defect or slow hydrolysis; 25 mM Tris-HCl pH 8.0, 5 mM MgCl2, 50 mM KCl, 1 mM DTT, 0.1 mg/ml BSA, 37 C, 5 min; 10 nM labeled oligo; Rho as hexamer; recombinant protein; protein details: C-terminal His
[5] = target: Rho G324D (Escherichia coli) (UniProt P0AG30); assay: ATPase activation (secondary site); settings: 1 uM (dC)34, 1 mM ATP, binding defect or slow hydrolysis; 25 mM Tris-HCl pH 8.0, 5 mM MgCl2, 50 mM KCl, 1 mM DTT, 0.1 mg/ml BSA, 37 C, 5 min; 10 nM labeled oligo; Rho as hexamer; recombinant protein; protein details: C-terminal His
[6] = target: Rho WT (Escherichia coli) (UniProt P0AG30); assay: EMSA; settings: 25 mM Tris-HCl pH 8.0, 5 mM MgCl2, 50 mM KCl, 1 mM DTT, 0.1 mg/ml BSA, 37 C, 5 min; 10 nM labeled oligo; Rho as hexamer; recombinant protein; protein details: C-terminal His

## CCCCCCCCCC [rC10]
[1]
  half-maximal binding: > 200 µM
[2]
  half-maximal binding: > 200 µM
[3]
  half-maximal binding: > 200 µM
[4]
  half-maximal binding: > 200 µM
[5]
  half-maximal binding: > 200 µM
[6]
  binding result: binds
